The list shows a part of the results.
compound: Cc1sc2c(c1C)C(c1ccc(Cl)cc1)=N[C@@H](CC(=O)OC(C)(C)C)c1nnc(C)n1-2; test: log2 fold change, soluble protein after heating vs DMSO (PISA); higher = thermal stabilisation; K562 lysate, 10 uM; active = over 0.2 and 3.5 SD of the protein, either way, in both replicates (recomputed)
Summary of the method: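 Log-two fold change in thermal stability relative to solvent controls is reported from duplicates. For each sample, crude K562 extract from dounce-homogenised pellets in PBS pH 7.4 with 1 mM MgCl2, at 1 mg/mL protein, was treated with 10 μM compound for 30 min. Aliquots heated for 3 min across 48°C-58°C were pooled, brought to 0.5% NP-40 at 4°C and cleared at 21,000xg for 90 min. The supernatant was quantified by TMTpro 16plex LC-MS/MS with channel sums equalised.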

Amino acid sequences for entries named in this document (tags omitted). A change or cut given only in a name is not applied to a line headed by its entry.
UniProt Q96GX9: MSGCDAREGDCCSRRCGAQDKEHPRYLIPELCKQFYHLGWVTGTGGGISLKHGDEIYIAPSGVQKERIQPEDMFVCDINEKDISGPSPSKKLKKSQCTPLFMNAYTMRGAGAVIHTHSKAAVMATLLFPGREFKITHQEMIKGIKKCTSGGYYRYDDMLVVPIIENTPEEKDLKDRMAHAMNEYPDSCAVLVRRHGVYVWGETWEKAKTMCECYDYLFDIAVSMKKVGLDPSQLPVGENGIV
UniProt P36404: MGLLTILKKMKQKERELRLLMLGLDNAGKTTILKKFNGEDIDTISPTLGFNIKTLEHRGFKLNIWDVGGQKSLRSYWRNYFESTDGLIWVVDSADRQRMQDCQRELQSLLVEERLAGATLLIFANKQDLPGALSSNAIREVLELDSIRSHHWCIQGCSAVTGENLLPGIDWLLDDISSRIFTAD
UniProt Q8IVW6: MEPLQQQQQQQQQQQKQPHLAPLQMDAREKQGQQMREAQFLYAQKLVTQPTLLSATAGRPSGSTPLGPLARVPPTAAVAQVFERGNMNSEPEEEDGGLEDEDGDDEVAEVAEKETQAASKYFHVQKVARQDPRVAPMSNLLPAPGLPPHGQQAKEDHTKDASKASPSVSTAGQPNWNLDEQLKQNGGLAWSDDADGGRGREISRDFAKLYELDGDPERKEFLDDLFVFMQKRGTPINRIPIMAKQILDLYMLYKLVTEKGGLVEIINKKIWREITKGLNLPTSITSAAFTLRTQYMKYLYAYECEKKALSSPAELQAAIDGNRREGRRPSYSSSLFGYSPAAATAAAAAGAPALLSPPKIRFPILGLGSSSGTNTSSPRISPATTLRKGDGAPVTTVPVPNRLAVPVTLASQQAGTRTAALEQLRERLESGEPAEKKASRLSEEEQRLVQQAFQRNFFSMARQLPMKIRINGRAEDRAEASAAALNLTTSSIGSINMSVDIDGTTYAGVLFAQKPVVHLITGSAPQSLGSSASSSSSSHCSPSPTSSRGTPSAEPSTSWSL
UniProt P18085: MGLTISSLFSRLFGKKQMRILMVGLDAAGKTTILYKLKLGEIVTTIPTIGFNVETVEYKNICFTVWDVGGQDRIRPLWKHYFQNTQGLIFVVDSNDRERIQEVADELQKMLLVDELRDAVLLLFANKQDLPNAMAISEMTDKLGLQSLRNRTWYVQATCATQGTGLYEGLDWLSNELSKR
UniProt P48444: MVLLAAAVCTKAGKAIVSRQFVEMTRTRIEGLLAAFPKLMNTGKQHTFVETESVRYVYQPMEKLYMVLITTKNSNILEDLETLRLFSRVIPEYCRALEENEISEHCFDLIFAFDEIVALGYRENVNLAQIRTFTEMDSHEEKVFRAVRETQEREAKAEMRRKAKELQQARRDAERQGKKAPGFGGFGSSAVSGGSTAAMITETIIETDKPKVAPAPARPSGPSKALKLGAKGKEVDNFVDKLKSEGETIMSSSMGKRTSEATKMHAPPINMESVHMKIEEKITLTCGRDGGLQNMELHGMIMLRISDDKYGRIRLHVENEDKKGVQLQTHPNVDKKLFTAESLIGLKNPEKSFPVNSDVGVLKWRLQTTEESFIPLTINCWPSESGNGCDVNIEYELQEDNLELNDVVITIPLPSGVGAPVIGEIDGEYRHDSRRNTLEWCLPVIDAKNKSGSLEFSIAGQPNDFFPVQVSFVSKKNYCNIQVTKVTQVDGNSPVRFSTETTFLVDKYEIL
UniProt P49407: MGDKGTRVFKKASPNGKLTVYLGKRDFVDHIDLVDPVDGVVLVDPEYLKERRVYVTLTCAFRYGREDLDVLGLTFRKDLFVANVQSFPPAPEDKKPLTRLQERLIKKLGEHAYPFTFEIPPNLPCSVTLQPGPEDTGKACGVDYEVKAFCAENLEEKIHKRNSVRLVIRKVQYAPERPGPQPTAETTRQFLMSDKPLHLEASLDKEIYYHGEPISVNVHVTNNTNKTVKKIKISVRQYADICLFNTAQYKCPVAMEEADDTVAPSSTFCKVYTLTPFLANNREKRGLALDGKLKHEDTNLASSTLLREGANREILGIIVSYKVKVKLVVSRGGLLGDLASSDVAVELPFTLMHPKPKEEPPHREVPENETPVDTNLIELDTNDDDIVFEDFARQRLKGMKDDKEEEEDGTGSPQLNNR
UniProt Q6UXV4: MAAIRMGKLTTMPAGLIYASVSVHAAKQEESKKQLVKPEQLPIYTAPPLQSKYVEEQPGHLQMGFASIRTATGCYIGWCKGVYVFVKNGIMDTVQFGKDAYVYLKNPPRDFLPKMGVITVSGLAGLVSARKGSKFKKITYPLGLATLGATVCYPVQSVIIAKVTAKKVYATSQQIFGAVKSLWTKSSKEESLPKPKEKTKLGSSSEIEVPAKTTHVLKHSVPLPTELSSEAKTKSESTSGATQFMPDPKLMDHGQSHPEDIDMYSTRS
UniProt Q9Y2Y0: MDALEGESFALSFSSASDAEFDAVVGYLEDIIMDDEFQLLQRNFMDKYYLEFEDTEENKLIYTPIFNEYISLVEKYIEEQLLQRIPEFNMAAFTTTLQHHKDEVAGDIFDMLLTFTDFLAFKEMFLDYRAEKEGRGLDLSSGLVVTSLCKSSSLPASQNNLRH
UniProt P02649, whole entry, looked up: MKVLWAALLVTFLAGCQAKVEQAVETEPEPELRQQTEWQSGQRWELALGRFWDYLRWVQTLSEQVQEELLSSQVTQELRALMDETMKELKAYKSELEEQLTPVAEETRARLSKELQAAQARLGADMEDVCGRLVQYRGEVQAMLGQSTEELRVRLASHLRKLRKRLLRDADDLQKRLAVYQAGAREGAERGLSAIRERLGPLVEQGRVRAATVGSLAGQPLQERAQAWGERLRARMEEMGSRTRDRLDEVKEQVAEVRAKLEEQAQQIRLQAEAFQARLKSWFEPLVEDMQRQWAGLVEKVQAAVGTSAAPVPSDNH
UniProt Q9BUR5: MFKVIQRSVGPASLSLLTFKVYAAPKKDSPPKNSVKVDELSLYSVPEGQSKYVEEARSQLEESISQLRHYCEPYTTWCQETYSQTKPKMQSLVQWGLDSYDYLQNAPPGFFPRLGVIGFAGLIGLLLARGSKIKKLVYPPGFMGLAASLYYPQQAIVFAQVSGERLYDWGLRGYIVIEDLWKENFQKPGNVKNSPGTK
UniProt Q9NWB6: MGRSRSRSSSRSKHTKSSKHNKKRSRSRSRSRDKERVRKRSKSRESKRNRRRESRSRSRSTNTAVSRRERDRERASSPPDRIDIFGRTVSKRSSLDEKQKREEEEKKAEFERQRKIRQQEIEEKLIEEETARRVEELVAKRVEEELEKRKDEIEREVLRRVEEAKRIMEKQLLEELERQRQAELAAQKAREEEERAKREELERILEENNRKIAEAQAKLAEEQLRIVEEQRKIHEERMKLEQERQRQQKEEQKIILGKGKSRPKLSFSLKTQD
UniProt Q9H0R1: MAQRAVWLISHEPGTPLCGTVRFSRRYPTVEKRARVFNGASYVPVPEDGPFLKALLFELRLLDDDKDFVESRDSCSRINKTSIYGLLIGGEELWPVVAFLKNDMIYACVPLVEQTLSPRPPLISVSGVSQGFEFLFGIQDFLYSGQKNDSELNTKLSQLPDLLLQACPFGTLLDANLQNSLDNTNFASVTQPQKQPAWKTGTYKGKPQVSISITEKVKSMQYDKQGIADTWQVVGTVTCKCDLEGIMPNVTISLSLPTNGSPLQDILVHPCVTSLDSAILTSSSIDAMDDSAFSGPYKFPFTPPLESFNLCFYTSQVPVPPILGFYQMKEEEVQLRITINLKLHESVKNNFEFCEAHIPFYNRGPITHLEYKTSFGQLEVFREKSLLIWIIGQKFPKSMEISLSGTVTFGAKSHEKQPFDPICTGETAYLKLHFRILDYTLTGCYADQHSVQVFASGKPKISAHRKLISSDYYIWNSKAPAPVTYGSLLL
UniProt P40616: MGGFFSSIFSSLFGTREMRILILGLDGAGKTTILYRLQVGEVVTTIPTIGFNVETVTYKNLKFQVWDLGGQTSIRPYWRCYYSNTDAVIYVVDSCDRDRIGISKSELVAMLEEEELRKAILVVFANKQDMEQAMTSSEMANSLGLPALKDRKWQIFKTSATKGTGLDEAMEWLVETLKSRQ
UniProt Q14CB8: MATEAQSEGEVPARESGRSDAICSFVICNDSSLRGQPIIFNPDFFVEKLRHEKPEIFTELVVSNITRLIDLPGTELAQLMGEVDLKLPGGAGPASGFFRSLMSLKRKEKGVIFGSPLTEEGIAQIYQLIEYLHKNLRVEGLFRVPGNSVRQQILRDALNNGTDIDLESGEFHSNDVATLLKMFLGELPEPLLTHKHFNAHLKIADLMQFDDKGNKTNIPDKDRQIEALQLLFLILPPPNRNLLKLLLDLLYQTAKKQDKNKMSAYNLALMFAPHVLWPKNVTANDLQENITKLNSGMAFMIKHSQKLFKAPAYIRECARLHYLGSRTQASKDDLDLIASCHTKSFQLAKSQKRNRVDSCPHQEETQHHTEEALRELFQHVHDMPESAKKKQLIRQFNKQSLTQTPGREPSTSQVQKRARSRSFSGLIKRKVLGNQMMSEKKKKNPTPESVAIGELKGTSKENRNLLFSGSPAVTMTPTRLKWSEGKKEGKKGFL
UniProt P62330: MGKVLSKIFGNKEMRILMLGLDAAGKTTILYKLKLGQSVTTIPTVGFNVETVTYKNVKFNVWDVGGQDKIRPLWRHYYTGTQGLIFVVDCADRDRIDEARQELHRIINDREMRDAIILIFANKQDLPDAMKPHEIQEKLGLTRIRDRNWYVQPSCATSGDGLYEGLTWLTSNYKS
UniProt P15289: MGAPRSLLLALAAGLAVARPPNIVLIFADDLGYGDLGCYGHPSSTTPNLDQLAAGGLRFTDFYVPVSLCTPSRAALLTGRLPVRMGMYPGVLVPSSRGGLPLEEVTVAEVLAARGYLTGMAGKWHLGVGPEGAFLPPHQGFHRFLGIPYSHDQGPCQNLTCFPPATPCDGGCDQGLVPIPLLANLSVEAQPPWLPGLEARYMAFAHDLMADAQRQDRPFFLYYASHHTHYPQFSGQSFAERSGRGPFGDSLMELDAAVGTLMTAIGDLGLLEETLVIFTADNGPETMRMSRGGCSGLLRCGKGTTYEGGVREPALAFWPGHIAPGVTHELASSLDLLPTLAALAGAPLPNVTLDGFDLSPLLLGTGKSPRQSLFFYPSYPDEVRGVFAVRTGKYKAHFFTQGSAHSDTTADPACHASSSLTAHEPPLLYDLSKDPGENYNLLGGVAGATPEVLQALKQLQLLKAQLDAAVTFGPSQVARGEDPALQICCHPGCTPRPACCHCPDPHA
UniProt Q7Z2E3: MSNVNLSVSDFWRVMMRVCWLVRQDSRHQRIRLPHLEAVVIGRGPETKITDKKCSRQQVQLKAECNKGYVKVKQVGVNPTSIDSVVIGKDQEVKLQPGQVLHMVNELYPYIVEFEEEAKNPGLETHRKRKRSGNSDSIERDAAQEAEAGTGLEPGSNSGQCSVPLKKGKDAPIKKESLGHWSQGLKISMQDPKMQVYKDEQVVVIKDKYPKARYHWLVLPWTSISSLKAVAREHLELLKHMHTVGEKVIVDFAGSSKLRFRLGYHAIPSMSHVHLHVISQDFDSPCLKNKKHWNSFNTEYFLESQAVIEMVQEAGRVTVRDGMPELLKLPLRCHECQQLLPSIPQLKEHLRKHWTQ
UniProt Q9H993: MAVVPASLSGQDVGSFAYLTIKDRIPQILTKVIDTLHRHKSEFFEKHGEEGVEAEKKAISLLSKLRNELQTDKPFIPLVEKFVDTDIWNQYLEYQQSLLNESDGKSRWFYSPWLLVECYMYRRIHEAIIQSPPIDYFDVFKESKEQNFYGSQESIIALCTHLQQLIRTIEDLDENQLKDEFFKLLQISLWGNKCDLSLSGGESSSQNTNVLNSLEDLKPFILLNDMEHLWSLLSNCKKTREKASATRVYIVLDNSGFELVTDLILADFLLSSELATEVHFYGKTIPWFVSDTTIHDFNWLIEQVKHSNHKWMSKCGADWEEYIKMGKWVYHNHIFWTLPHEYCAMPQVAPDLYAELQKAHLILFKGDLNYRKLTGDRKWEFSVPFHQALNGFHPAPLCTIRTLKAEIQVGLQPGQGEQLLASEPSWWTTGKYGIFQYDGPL

Target | log2 fold change
ARHGEF11 isoform 2 (UniProt O15085) | inactive: -0.026
APIP (UniProt Q96GX9) | inactive: -0.012
APC (UniProt P25054) | inactive: -0.016
ARL2 (UniProt P36404) | inactive: 0.03
ARID3B (UniProt Q8IVW6) | inactive: -0.018
ARF4 (UniProt P18085) | inactive: -0.002
ARCN1 (UniProt P48444) | inactive: -0.011
ARRB1 isoform 2 (UniProt P49407) | inactive: -0.015
APOOL (UniProt Q6UXV4) | inactive: 0.012
ARL2BP (UniProt Q9Y2Y0) | inactive: -0.022
ARID2 (UniProt Q68CP9) | inactive: 0
ARHGEF12 (UniProt Q9NZN5) | inactive: -0.019
APOE (UniProt P02649) | inactive: -0.022
APOO (UniProt Q9BUR5) | inactive: 0.003
ARGLU1 (UniProt Q9NWB6) | inactive: -0.026
ARPIN isoform 2 (UniProt Q7Z6K5) | inactive: -0.159
AP5M1 (UniProt Q9H0R1) | inactive: 0.008
ARL1 (UniProt P40616) | inactive: -0.026
ARHGAP19 isoform 2 (UniProt Q14CB8) | inactive: -0.065
ARF6 (UniProt P62330) | inactive: -0.06
ARSA (UniProt P15289) | inactive: -0.026
APTX (UniProt Q7Z2E3) | inactive: -0.054
ARMT1 (UniProt Q9H993) | inactive: -0.01

Looked up one by one from above:
Target | log2 fold change
ARGLU1 (UniProt Q9NWB6) | inactive: -0.026
APC (UniProt P25054) | inactive: -0.016

Reference: the supplement of paper PMC10849652
